Measurements from PubChem BioAssay AID256 (DTP/NCI, 2004).
The list is a part of this screen's results and no random one: it gathers tests that were run many times, whatever their T/C, doses with no T/C, and many T/C values between a quarter and a half above the control. Other doses and runs of a compound stand elsewhere. T/C is the treated group as % of the vehicle group. Some entries give survivors of the animals treated and no T/C: the source files T/C as zero there, which appears to mark a toxic dose or a test without result, not a measured value. Some doses without a T/C left all or most animals alive at the check, yet need not have been tolerated: the source hardly ever lists a survival T/C far under the control, and the zero likely stands for such cases as well. Survivors were counted at the toxicity check, usually on the fifth day, unless a day is given; later deaths do not show. Schedule codes are those of the source, taken here to give the interval after Q, in days (D) or hours (H), and the number of doses after X. Some structures stand for samples that the source files as different forms (salt, stereo form or complex); doses refer to the form tested. Additions like (4×) say how often a value occurs here. Some doses were run more than once; the results are listed from low to high. Where survival is the endpoint, this PubChem deposit counts one and a half times the control or more as active, and values a quarter to a half above the control carry no call in these data; other NCI protocols may use other cut-offs. Some T/C values carry the count of animals alive at the toxicity check (mostly the fifth day); where none is given, no animal had died by that day.

Tested on: CD2F1 mice, L1210 leukemia ip, survival T/C
Experiment: NCI In Vivo Anticancer Drug Screen. Data for tumor model L1210 Leukemia (intraperitoneal) in CD2F1 (CDF1) mice
Conditions: higher T/C = longer survival
Method in brief: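 Antitumor effect is scored in animals hosting a serially transplanted tumor. Values compare compound-dosed animals against vehicle-only controls as a simple quotient.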

[1] = T/C endpoint: mean survival time, dose: 400.0 mg/kg/injection, schedule: Q01DX009 (ip), vehicle: saline with Tween-80
[2] = T/C endpoint: mean survival time, dose: 75.0 mg/kg/injection, schedule: Q01DX001 (ip), vehicle: saline
[3] = T/C endpoint: mean survival time, dose: 150.0 mg/kg/injection, schedule: Q01DX001 (ip), vehicle: saline
[4] = T/C endpoint: mean survival time, dose: 300.0 mg/kg/injection, schedule: Q01DX001 (ip), vehicle: saline
[5] = T/C endpoint: mean survival time, dose: 200.0 mg/kg/injection, schedule: Q01DX009 (ip), vehicle: saline with Tween-80
[6] = T/C endpoint: mean survival time, dose: 200.0 mg/kg/injection, schedule: Q04DX003 (ip), vehicle: saline with Tween-80
[7] = T/C endpoint: mean survival time, dose: 400.0 mg/kg/injection, schedule: Q04DX003 (ip), vehicle: saline with Tween-80
[8] = T/C endpoint: mean survival time, dose: 400.0 mg/kg/injection, schedule: Q01DX001 (ip), vehicle: saline
[9] = T/C endpoint: median survival time, dose: 800.0 mg/kg/injection, schedule: Q01DX005 (ip), vehicle: saline

SMILES: CC(=O)OC1CCC2(C)C(CCC3C2CCC2(C)C3CC3OC(CCC(C)O)C(C)C32)C1 (stereo not given)
- survivor count (T/C endpoint: mean survival time, dose: 200.0 mg/kg/injection, schedule: Q04DX002 (ip), vehicle: saline with Tween-80): 3 of 3
- survivor count (T/C endpoint: mean survival time, dose: 400.0 mg/kg/injection, schedule: Q04DX002 (ip), vehicle: saline with Tween-80): 2 of 3

SMILES: CN=C(N)N/N=C(\c1ccccc1)c1ccc(Br)cc1
- survivor count (T/C endpoint: median survival time, dose: 50.0 mg/kg/injection, schedule: Q01DX009 (ip), vehicle: saline): 4 of 6

SMILES: COc1ccc2c(c1)C(=O)C(Br)CC2 (stereo not given)
- survivor count [1]: 0 of 3 and 0 of 6

SMILES: CC(C)(CNC1CCCCC1)OC(=O)c1ccc(N)cc1
- survivor count [2]: 3 of 6
- survivor count (T/C endpoint: mean survival time, dose: 80.0 mg/kg/injection, schedule: Q01DX001 (ip), vehicle: saline): 0 of 6
- survivor count [3]: 0 of 6
- survivor count [4]: 0 of 6

SMILES: OC12Cc3ccccc3C1=NN(c1ccccc1)C2c1ccccc1 (stereo not given)
- survivor count [5]: 6 of 6

SMILES: O=S1(=O)CC2(C1)CS(=O)(=O)C2
- survivor count (T/C endpoint: mean survival time, dose: 400.0 mg/kg/injection, schedule: Q01DX001 (ip), vehicle: saline with Tween-80): 1 of 3

SMILES: CN(C)/N=N\c1ncn(C2OC(CO)C(O)C2O)c1C(N)=O (stereo not given)
- T/C (T/C endpoint: mean survival time, dose: 200.0 mg/kg/injection, schedule: Q01DX005 (ip), vehicle: saline): 129 % of control

SMILES: CCN(CC)CCN1Cc2ccccc2C1
- survivor count [5]: 0 of 6
- survivor count [1]: 0 of 6

SMILES: CNC(=O)Nc1nnnc2ccccc12
- survivor count [6]: 6 of 6
- survivor count [7]: 1 of 6

SMILES: CC(=O)OCC1OC(N2C(=O)C=CC2=O)C(OC(C)=O)C1OC(C)=O (stereo not given)
- survivor count (T/C endpoint: mean survival time, dose: 25.0 mg/kg/injection, schedule: Q01DX005 (ip), vehicle: water): 0 of 3
- survivor count (T/C endpoint: mean survival time, dose: 50.0 mg/kg/injection, schedule: Q01DX005 (ip), vehicle: water): 0 of 3
- survivor count (T/C endpoint: mean survival time, dose: 100.0 mg/kg/injection, schedule: Q01DX005 (ip), vehicle: water): 0 of 3
- survivor count (T/C endpoint: mean survival time, dose: 200.0 mg/kg/injection, schedule: Q01DX005 (ip), vehicle: water): 0 of 3

SMILES: CCC(/C=N\O)CC
- survivor count [8]: 2 of 4

SMILES: CN1CCC23C(=O)CC4C(=CCOC5CC(=O)N(c6ccccc62)C3C54)C1 (stereo not given)
- survivor count [2]: 0 of 6
- survivor count [3]: 0 of 6
- survivor count [4]: 0 of 6

SMILES: Cc1ccc(S(=O)(=O)O)cc1.Cc1ccc(S(=O)(=O)O)cc1.[NH-]C1CCCCC1[NH-].[Pt+2]
- T/C (T/C endpoint: mean survival time, dose: 0.5 mg/kg/injection, schedule: Q04DX003 (ip), vehicle: other): 132 % of control
- T/C (T/C endpoint: mean survival time, dose: 1.0 mg/kg/injection, schedule: Q04DX003 (ip), vehicle: other): 144 % of control

SMILES: CC(CNCCN)C[Si](C)(C)C (stereo not given)
- survivor count (T/C endpoint: mean survival time, dose: 50.0 mg/kg/injection, schedule: Q04DX003 (ip), vehicle: saline with Tween-80): 2 of 6
- survivor count (T/C endpoint: mean survival time, dose: 100.0 mg/kg/injection, schedule: Q04DX003 (ip), vehicle: saline with Tween-80): 0 of 6
- survivor count [6]: 0 of 6

SMILES: CCN(CC)CCN1CC2CC=CCC2C1 (stereo not given)
- survivor count [5]: 0 of 6
- survivor count [1]: 0 of 6

SMILES: CCN(C(=O)CCl)C(C)(C)C(SSSC(c1ccc(Cl)cc1)C(C)(C)N(CC)C(=O)CCl)c1ccc(Cl)cc1 (stereo not given)
- survivor count (T/C endpoint: mean survival time, dose: 200.0 mg/kg/injection, schedule: Q01DX009 (ip), vehicle: saline): 3 of 6

SMILES: [Cl][Pt+2][Cl].[NH-]C(CO)C([NH-])CO (stereo not given)
- T/C (T/C endpoint: median survival time, dose: 10.0 mg/kg/injection, schedule: Q04DX003 (ip), vehicle: water): 125 % of control
- survivor count (T/C endpoint: median survival time, dose: 25.0 mg/kg/injection, schedule: Q04DX003 (ip), vehicle: distilled water + Tween-80): 4 of 6
- survivor count (T/C endpoint: median survival time, dose: 50.0 mg/kg/injection, schedule: Q04DX003 (ip), vehicle: distilled water + Tween-80): 0 of 6
- survivor count (T/C endpoint: median survival time, dose: 100.0 mg/kg/injection, schedule: Q04DX003 (ip), vehicle: distilled water + Tween-80): 0 of 6
- survivor count (T/C endpoint: median survival time, dose: 200.0 mg/kg/injection, schedule: Q04DX003 (ip), vehicle: distilled water + Tween-80): 0 of 6

SMILES: COc1cc2c[n+](C)c3c4cc5c(cc4ccc3c2cc1OC)OCO5 (tested in a mixture with another compound)
- T/C (T/C endpoint: mean survival time, dose: 10.0 mg/kg/injection, schedule: Q01DX009 (ip), vehicle: saline): 128 % of control
- T/C (T/C endpoint: mean survival time, dose: 20.0 mg/kg/injection, schedule: Q01DX009 (ip), vehicle: saline): 132 % of control
- T/C (T/C endpoint: mean survival time, dose: 25.0 mg/kg/injection, schedule: Q01DX009 (ip), vehicle: Klucel (hydroxypropylcellulose) (HPC)): 134 % of control
- T/C (T/C endpoint: mean survival time, dose: 40.0 mg/kg/injection, schedule: Q01DX009 (ip), vehicle: saline): 139 % of control
- survivor count (T/C endpoint: mean survival time, dose: 50.0 mg/kg/injection, schedule: Q01DX009 (ip), vehicle: other): 6 of 6 (2×)
- T/C (T/C endpoint: mean survival time, dose: 80.0 mg/kg/injection, schedule: Q01DX009 (ip), vehicle: saline): 141 % of control
- survivor count (T/C endpoint: mean survival time, dose: 100.0 mg/kg/injection, schedule: Q01DX009 (ip), vehicle: Klucel (hydroxypropylcellulose) (HPC)): 3 of 6

SMILES: O=C(CCl)c1cccnc1C(=O)O
- survivor count [6]: 1 of 6
- survivor count [7]: 0 of 6

SMILES: CC(C)=CN(C)C (tested in a mixture with another compound)
- survivor count (T/C endpoint: mean survival time, dose: 100.0 mg/kg/injection, schedule: Q01DX001 (ip), vehicle: saline): 2 of 6
- survivor count (T/C endpoint: mean survival time, dose: 200.0 mg/kg/injection, schedule: Q01DX001 (ip), vehicle: saline): 0 of 6
- survivor count [8]: 0 of 6

SMILES: N[C@@H](C[C@H]1CCC(=O)[C@@H]2O[C@H]12)C(=O)O
- T/C (T/C endpoint: mean survival time, dose: 200.0 mg/kg/injection, schedule: Q04DX002 (ip), vehicle: saline): 130 and 136 % of control
- T/C (T/C endpoint: mean survival time, dose: 400.0 mg/kg/injection, schedule: Q04DX002 (ip), vehicle: saline): 130 % of control
- T/C (T/C endpoint: mean survival time, dose: 600.0 mg/kg/injection, schedule: Q04DX002 (ip), vehicle: saline): 139 % of control
- T/C (T/C endpoint: median survival time, dose: 200.0 mg/kg/injection, schedule: Q01DX005 (ip), vehicle: saline): 128 and 131 % of control
- T/C (T/C endpoint: median survival time, dose: 400.0 mg/kg/injection, schedule: Q01DX005 (ip), vehicle: saline): 127, 133, 142 % of control
- T/C (T/C endpoint: median survival time, dose: 480.0 mg/kg/injection, schedule: Q01DX005 (ip), vehicle: saline): 130 % of control
- T/C (T/C endpoint: median survival time, dose: 666.67 mg/kg/injection, schedule: Q01DX005 (ip), vehicle: saline): 136 % of control
- T/C [9]: 129 % of control
- survivor count [9]: 0 of 6
- survivor count (T/C endpoint: median survival time, dose: 1111.11 mg/kg/injection, schedule: Q01DX005 (ip), vehicle: saline): 0 of 6

SMILES: CN1C(=O)C2(Cc3cn(C45CC67SSC(CO)(C(=O)N6C4Nc4ccccc45)N(C)C7=O)c4ccccc34)SSC1(CO)C(=O)N2C (stereo not given)
- survivor count (T/C endpoint: mean survival time, dose: 2.5 mg/kg/injection, schedule: Q01DX009 (ip), vehicle: Klucel (hydroxypropylcellulose) (HPC)): 1 of 6
- survivor count (T/C endpoint: mean survival time, dose: 5.0 mg/kg/injection, schedule: Q01DX009 (ip), vehicle: Klucel (hydroxypropylcellulose) (HPC)): 0 of 6
- survivor count (T/C endpoint: mean survival time, dose: 10.0 mg/kg/injection, schedule: Q01DX009 (ip), vehicle: Klucel (hydroxypropylcellulose) (HPC)): 0 of 6
- survivor count (T/C endpoint: mean survival time, dose: 20.0 mg/kg/injection, schedule: Q01DX009 (ip), vehicle: Klucel (hydroxypropylcellulose) (HPC)): 0 of 6

SMILES: CO[C@H]1Nc2c(ccc(C)c2O)C(=O)N2C=C(/C=C/C(N)=O)C[C@@H]12
- survivor count (T/C endpoint: mean survival time, dose: 0.6 mg/kg/injection, schedule: Q01DX015 (ip), vehicle: saline): 6 of 6
- T/C (T/C endpoint: mean survival time, dose: 0.66 mg/kg/injection, schedule: Q04DX003 (ip), vehicle: saline with Tween-80): 127 % of control
- T/C (T/C endpoint: mean survival time, dose: 1.0 mg/kg/injection, schedule: Q04DX003 (ip), vehicle: saline with Tween-80): 136 % of control [5 of 6 alive]
- survivor count (T/C endpoint: mean survival time, dose: 2.0 mg/kg/injection, schedule: Q04DX003 (ip), vehicle: saline with Tween-80): 0 of 6
- survivor count (T/C endpoint: mean survival time, dose: 4.0 mg/kg/injection, schedule: Q04DX003 (ip), vehicle: saline with Tween-80): 0 of 6
- T/C (T/C endpoint: median survival time, dose: 0.08 mg/kg/injection, schedule: Q01DX005 (ip), vehicle: DMSO): 130 % of control
- T/C (T/C endpoint: median survival time, dose: 0.16 mg/kg/injection, schedule: Q01DX005 (ip), vehicle: DMSO): 146 % of control
- T/C (T/C endpoint: median survival time, dose: 0.32 mg/kg/injection, schedule: Q01DX005 (ip), vehicle: DMSO): 144 % of control [5 of 6 alive]
